Results on 2 sequences are retold here after publication PMC5003356.

pKd: −log10 of the molar value. The exact form of at least one protein or probe is not confirmed. Results from cells or extracts need not show a direct contact. For some of these results: Where a protein sequence is shown, tags need not be part of it.

Test in all cases: BRET
One data set addresses Ku70-NLuc (UniProt P12956). The conditions noted are these: PS, BRET: 1X binding buffer (0.1 M potassium acetate, 20 mM Tris pH 7.5, 1 mM EDTA, 0.01% NP-40), room temperature, 15 min, protein in a lysate after overexpression, protein details: C-terminal NLuc, label: 3' Alexa Fluor 594, synthetic backbone. On the technique in general: Bioluminescence resonance energy transfer reports proximity on the nanometre scale.

In the next data set the target is NMP1 (NPM1) NLuc fusion (UniProt P06748). The conditions noted are these: PS, BRET: 1X binding buffer (0.1 M potassium acetate, 20 mM Tris pH 7.5, 1 mM EDTA, 0.01% NP-40), room temperature, 15 min, protein in a lysate after overexpression, protein details: NLuc (N or C), label: 3' Alexa Fluor 594, synthetic backbone.
The target of the next data set is NLuc-PC4 (UniProt P53999). The conditions noted are these: PS, BRET: 1X binding buffer (0.1 M potassium acetate, 20 mM Tris pH 7.5, 1 mM EDTA, 0.01% NP-40), room temperature, 15 min, protein in a lysate after overexpression, protein details: N-terminal NLuc, label: 3' Alexa Fluor 594, synthetic backbone.
A further data set deals with NLuc-RPL5 (UniProt P47962). The conditions noted are these: PS, BRET: 1X binding buffer (0.1 M potassium acetate, 20 mM Tris pH 7.5, 1 mM EDTA, 0.01% NP-40), room temperature, 15 min, protein in a lysate after overexpression, protein details: N-terminal NLuc, label: 3' Alexa Fluor 594, synthetic backbone.
Another data set deals with La NLuc fusion (UniProt P05455). The conditions noted are these: PS, BRET: 1X binding buffer (0.1 M potassium acetate, 20 mM Tris pH 7.5, 1 mM EDTA, 0.01% NP-40), room temperature, 15 min, protein in a lysate after overexpression, protein details: NLuc (N or C), label: 3' Alexa Fluor 594, synthetic backbone.
The target of another data set is SFPQ-NLuc (UniProt P23246). The conditions noted are these: PS, BRET: 1X binding buffer (0.1 M potassium acetate, 20 mM Tris pH 7.5, 1 mM EDTA, 0.01% NP-40), room temperature, 15 min, protein in a lysate after overexpression, protein details: C-terminal NLuc, label: 3' Alexa Fluor 594, synthetic backbone.
Another data set deals with LRPPRC-NLuc (UniProt P42704). To be noted: PS, BRET: 1X binding buffer (0.1 M potassium acetate, 20 mM Tris pH 7.5, 1 mM EDTA, 0.01% NP-40), room temperature, 15 min, protein in a lysate after overexpression, protein details: C-terminal NLuc, label: 3' Alexa Fluor 594, synthetic backbone.
For the next data set, the target named is HSP90 (mid)-NLuc (UniProt P07900). The conditions noted are these: PS, BRET: 1X binding buffer (0.1 M potassium acetate, 20 mM Tris pH 7.5, 1 mM EDTA, 0.01% NP-40), room temperature, 15 min, protein in a lysate after overexpression, protein details: C-terminal NLuc, label: 3' Alexa Fluor 594, synthetic backbone.
The target in the next data set is T1, NLuc-TCP1-beta (UniProt P80314).
T1 sequence (looked up, limits assumed): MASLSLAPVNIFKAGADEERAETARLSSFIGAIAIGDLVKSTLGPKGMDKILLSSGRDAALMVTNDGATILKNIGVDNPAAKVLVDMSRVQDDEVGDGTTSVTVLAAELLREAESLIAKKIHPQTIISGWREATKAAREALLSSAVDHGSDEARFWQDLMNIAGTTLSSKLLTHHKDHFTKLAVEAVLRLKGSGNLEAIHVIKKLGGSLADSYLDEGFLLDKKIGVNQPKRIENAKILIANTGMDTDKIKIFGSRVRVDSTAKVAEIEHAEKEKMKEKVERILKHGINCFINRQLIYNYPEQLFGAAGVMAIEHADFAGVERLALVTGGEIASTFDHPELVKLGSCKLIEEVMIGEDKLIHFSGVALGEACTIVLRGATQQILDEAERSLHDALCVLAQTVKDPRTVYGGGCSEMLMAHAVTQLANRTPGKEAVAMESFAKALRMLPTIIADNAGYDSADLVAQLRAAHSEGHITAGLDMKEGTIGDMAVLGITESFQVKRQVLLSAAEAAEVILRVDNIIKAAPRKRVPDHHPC
To be noted: PS, BRET: 1X binding buffer (0.1 M potassium acetate, 20 mM Tris pH 7.5, 1 mM EDTA, 0.01% NP-40), room temperature, 15 min, protein in a lysate after overexpression, protein details: N-terminal NLuc, label: 3' Alexa Fluor 594, synthetic backbone.

Data set [1] addresses P54nrb NLuc fusion (Homo sapiens) (UniProt Q15233). To be noted: PS, BRET: 1X binding buffer (0.1 M potassium acetate, 20 mM Tris pH 7.5, 1 mM EDTA, 0.01% NP-40), room temperature, 15 min, protein in a lysate after overexpression, protein details: NLuc (N or C), label: 3' Alexa Fluor 594, synthetic backbone.
A further data set addresses T2, Staufen1 NLuc fusion (UniProt O95793).
T2 sequence (looked up, limits assumed): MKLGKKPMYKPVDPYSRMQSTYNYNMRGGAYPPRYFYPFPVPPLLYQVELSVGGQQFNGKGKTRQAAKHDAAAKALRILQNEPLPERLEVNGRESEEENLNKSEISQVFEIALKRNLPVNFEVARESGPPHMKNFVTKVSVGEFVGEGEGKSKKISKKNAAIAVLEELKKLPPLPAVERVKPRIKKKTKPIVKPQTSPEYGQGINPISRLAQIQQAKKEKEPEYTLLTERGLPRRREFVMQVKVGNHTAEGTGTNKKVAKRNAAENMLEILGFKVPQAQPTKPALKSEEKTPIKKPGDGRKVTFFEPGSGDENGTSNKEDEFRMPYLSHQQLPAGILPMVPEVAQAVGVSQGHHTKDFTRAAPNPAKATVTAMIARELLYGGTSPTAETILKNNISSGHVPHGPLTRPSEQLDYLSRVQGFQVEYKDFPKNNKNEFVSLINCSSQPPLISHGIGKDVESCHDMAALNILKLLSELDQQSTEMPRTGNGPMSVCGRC
The conditions noted are these: PS; 5-10-5 (S)-cEt gap-mer; BRET: 1X binding buffer (0.1 M potassium acetate, 20 mM Tris pH 7.5, 1 mM EDTA, 0.01% NP-40), room temperature, 15 min; protein in a lysate after overexpression; label: 3' Alexa Fluor 594; synthetic backbone.

In the next data set the target is NLuc-RPL11 (UniProt P62913). The conditions noted are these: PS, BRET: 1X binding buffer (0.1 M potassium acetate, 20 mM Tris pH 7.5, 1 mM EDTA, 0.01% NP-40), room temperature, 15 min, protein in a lysate after overexpression, protein details: N-terminal NLuc, label: 3' Alexa Fluor 594, synthetic backbone.
Another data set has as its target ANXA2-NLuc (UniProt P07356). The conditions noted are these: PS, BRET: 1X binding buffer (0.1 M potassium acetate, 20 mM Tris pH 7.5, 1 mM EDTA, 0.01% NP-40), room temperature, 15 min, protein in a lysate after overexpression, protein details: C-terminal NLuc, label: 3' Alexa Fluor 594, synthetic backbone.
For the next data set, the target named is T3, FUS-NLuc (UniProt P56959).
T3 sequence (looked up, limits assumed): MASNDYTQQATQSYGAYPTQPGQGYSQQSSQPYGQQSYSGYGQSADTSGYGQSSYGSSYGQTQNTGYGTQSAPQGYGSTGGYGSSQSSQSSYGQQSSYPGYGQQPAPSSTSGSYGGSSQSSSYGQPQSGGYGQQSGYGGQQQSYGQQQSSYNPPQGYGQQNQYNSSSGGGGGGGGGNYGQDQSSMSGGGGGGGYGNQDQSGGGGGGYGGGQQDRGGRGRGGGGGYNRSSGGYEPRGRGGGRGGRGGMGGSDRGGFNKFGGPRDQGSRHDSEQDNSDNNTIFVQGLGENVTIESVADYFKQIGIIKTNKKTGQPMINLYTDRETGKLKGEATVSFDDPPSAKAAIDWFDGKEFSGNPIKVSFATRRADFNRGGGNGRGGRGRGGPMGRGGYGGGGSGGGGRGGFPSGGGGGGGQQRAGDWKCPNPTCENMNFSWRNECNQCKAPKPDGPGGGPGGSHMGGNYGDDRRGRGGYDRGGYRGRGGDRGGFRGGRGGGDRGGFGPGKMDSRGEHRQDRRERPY
The conditions noted are these: PS, BRET: 1X binding buffer (0.1 M potassium acetate, 20 mM Tris pH 7.5, 1 mM EDTA, 0.01% NP-40), room temperature, 15 min, protein in a lysate after overexpression, protein details: C-terminal NLuc, label: 3' Alexa Fluor 594, synthetic backbone.

In data set [2] the target is NCL (RBD 1-4) NLuc fusion (UniProt P09405). The conditions noted are these: PS, BRET: 1X binding buffer (0.1 M potassium acetate, 20 mM Tris pH 7.5, 1 mM EDTA, 0.01% NP-40), room temperature, 15 min, protein in a lysate after overexpression, protein details: NLuc (N or C), label: 3' Alexa Fluor 594, synthetic backbone.
A further data set deals with T4, RNase H1 NLuc fusion (UniProt O60930).
T4 sequence (looked up, limits assumed): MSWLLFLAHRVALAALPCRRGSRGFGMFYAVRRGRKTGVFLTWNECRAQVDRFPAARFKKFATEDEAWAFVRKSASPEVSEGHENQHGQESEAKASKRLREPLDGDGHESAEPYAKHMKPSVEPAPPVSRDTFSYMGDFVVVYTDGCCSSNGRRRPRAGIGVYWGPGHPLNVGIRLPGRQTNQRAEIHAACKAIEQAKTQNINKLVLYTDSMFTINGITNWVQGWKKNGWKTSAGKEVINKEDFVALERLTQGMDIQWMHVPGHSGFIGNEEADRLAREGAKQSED
To be noted: PS, BRET: 1X binding buffer (0.1 M potassium acetate, 20 mM Tris pH 7.5, 1 mM EDTA, 0.01% NP-40), room temperature, 15 min, protein in a lysate after overexpression, protein details: NLuc (N or C), label: 3' Alexa Fluor 594, synthetic backbone.

For orientation: pKd means the Kd on a negative log10 scale, so that one unit is a factor of ten. Turning to “CTGCTAGCCTCTGGATTTGA [766636 cEt gap-mer]”, the pKd in the data set with Ku70-NLuc (5-10-5 (S)-cEt gap-mer) was 8.40; with NMP1 (NPM1) NLuc fusion (5-10-5 (S)-cEt gap-mer), < 6.00; with NLuc-PC4 (5-10-5 (S)-cEt gap-mer), 8.96; with NLuc-RPL5 (5-10-5 (S)-cEt gap-mer), 8.89; in the data set with La NLuc fusion (5-10-5 (S)-cEt gap-mer), 8.30; with SFPQ-NLuc (5-10-5 (S)-cEt gap-mer) it was 8.57. For the same sequence, the pKd with LRPPRC-NLuc (5-10-5 (S)-cEt gap-mer) was 9.80; in the data set with HSP90 (mid)-NLuc (5-10-5 (S)-cEt gap-mer), 7.37; with NLuc-TCP1-beta (5-10-5 (S)-cEt gap-mer), 6.95; in data set [1] (5-10-5 (S)-cEt gap-mer), 8.03; with Staufen1 NLuc fusion it was 7.00; with NLuc-RPL11 (5-10-5 (S)-cEt gap-mer), 7.76. Moreover, the negative logarithm of the Kd (pKd) in the data set with ANXA2-NLuc (5-10-5 (S)-cEt gap-mer) was < 6.00; with FUS-NLuc (5-10-5 (S)-cEt gap-mer), 9.22; in data set [2] (5-10-5 (S)-cEt gap-mer) it was 8.77; with RNase H1 NLuc fusion (5-10-5 (S)-cEt gap-mer) it was 8.30.

As to “CTGCTAGCCTCTGGATTTGA [766634 MOE gap-mer]”, the negative-log Kd (pKd) with Ku70-NLuc (5-10-5 2'-MOE gap-mer) is 7.82; with NMP1 (NPM1) NLuc fusion (5-10-5 2'-MOE gap-mer), < 6.00; in the data set with NLuc-PC4 (5-10-5 2'-MOE gap-mer), 8.21; with NLuc-RPL5 (5-10-5 2'-MOE gap-mer), 8.43; with La NLuc fusion (5-10-5 2'-MOE gap-mer) it was 8.03; with SFPQ-NLuc (5-10-5 2'-MOE gap-mer), 8.43. Besides, the negative logarithm of the Kd (pKd) was 9.11 in the data set with LRPPRC-NLuc (5-10-5 2'-MOE gap-mer); 6.78 in the data set with HSP90 (mid)-NLuc (5-10-5 2'-MOE gap-mer); 6.40 with NLuc-TCP1-beta (5-10-5 2'-MOE gap-mer); 7.08 in data set [1] (5-10-5 2'-MOE gap-mer); 7.80 in the data set with NLuc-RPL11 (5-10-5 2'-MOE gap-mer); < 6.00 with ANXA2-NLuc (5-10-5 2'-MOE gap-mer). The pKd with FUS-NLuc (5-10-5 2'-MOE gap-mer) is 8.74; in data set [2] (5-10-5 2'-MOE gap-mer), 11.05; with RNase H1 NLuc fusion (5-10-5 2'-MOE gap-mer) it was 8.70.
